Reference: the supplement of paper PMC8007513
The list shows a part of the results. Many values rest on one well or one pass, so single values are uncertain.

What follows are molecules tested on Saccharomyces cerevisiae BY4743 (assay: growth (OD600) with compound + IPBC relative to untreated control; higher = less growth inhibition). Conditions: compound concentration: 133 uM; IPBC concentration: 0.5 ug/ml; 20 h.
Experimental: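 NMCCC compounds (133 uM) combined with IPBC (0.5 ug/ml) against Saccharomyces cerevisiae BY4743 in YPD, 96-well plates. Growth was read as OD600 at 20 h and expressed as % of the untreated control. Single pass.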

Row | Compound | growth [%]
1 | CCCC(C(=O)Nc1cc(OC)c(OC)c(OC)c1)N1Cc2ccccc2C1=O (configuration not stated) + CCCCNC(=O)OCC#CI [3-iodo-2-propynyl butylcarbamate (IPBC)] | 105
2 | O=C(Nc1ccc(N2CCCC2)cn1)c1ccc(Cl)cc1 + CCCCNC(=O)OCC#CI [3-iodo-2-propynyl butylcarbamate (IPBC)] | 86.3
3 | CN(Cc1cnn(-c2ccccc2)c1)C(=O)c1cc(S(=O)(=O)N(C)C)ccc1Cl + CCCCNC(=O)OCC#CI [3-iodo-2-propynyl butylcarbamate (IPBC)] | 101
4 | COc1cccc(C(=O)Oc2c(S(=O)(=O)c3ccccc3)c(C)nn2C(C)(C)C)c1OC + CCCCNC(=O)OCC#CI [3-iodo-2-propynyl butylcarbamate (IPBC)] | 93.2
5 | CC1CC(=O)Nc2cc(S(=O)(=O)N(C)C3CCCCC3)ccc2S1 (configuration not stated) + CCCCNC(=O)OCC#CI [3-iodo-2-propynyl butylcarbamate (IPBC)] | 94.2
6 | CCS(=O)(=O)N1CCc2cc(C(=O)COC(=O)c3cc(Cl)ccc3O)ccc21 + CCCCNC(=O)OCC#CI [3-iodo-2-propynyl butylcarbamate (IPBC)] | 92.9
7 | COCCn1c(N2CCN(C)CC2)nc2c1c(=O)n(C)c(=O)n2C + CCCCNC(=O)OCC#CI [3-iodo-2-propynyl butylcarbamate (IPBC)] | 102
8 | CN(C(=O)Cn1c(=O)[nH]c2ccccc2c1=O)C1CCS(=O)(=O)C1 (configuration not stated) + CCCCNC(=O)OCC#CI [3-iodo-2-propynyl butylcarbamate (IPBC)] | 98.6
9 | NC(=O)c1ccc(S(=O)(=O)N2CCN(CCC(=O)N3CCOCC3)CC2)o1 + CCCCNC(=O)OCC#CI [3-iodo-2-propynyl butylcarbamate (IPBC)] | 85
10 | CCC1CCCCN1C(=O)COC(=O)c1[nH]c(C)c(C(C)=O)c1C (configuration not stated) + CCCCNC(=O)OCC#CI [3-iodo-2-propynyl butylcarbamate (IPBC)] | 71.9
11 | CN1CCc2nc(SCc3cccc(C(F)(F)F)c3)c(C#N)cc2C1 + CCCCNC(=O)OCC#CI [3-iodo-2-propynyl butylcarbamate (IPBC)] | 101
12 | CCc1ccc(NC(=O)CN2C(=O)CSc3ccc(S(=O)(=O)N(C)C)cc32)cc1 + CCCCNC(=O)OCC#CI [3-iodo-2-propynyl butylcarbamate (IPBC)] | 105
13 | CCOC(=O)N1CCN(C(=O)CN(c2ccccc2)S(=O)(=O)c2ccc(OCC)cc2)CC1 + CCCCNC(=O)OCC#CI [3-iodo-2-propynyl butylcarbamate (IPBC)] | 94.4
14 | CCOC(=O)c1cc(S(=O)(=O)N(C)CC(=O)Nc2cccc(C)n2)cn1C + CCCCNC(=O)OCC#CI [3-iodo-2-propynyl butylcarbamate (IPBC)] | 110
15 | NCCCC(=O)OC1\N=C(\C2=CC=CC=C2Cl)C3=CC(=CC=C3NC1=O)Br (configuration not stated) + CCCCNC(=O)OCC#CI [3-iodo-2-propynyl butylcarbamate (IPBC)] | 94.2
16 | CC(NC(=O)CSc1nc(O)c2ccsc2n1)c1cccs1 (configuration not stated) + CCCCNC(=O)OCC#CI [3-iodo-2-propynyl butylcarbamate (IPBC)] | 92.5
17 | COc1cc(CSc2nnc(C)s2)c(OC)cc1Br + CCCCNC(=O)OCC#CI [3-iodo-2-propynyl butylcarbamate (IPBC)] | 98.8

Some values from the list.
Value for CC(NC(=O)CSc1nc(O)c2ccsc2n1)c1cccs1 (configuration not stated) + CCCCNC(=O)OCC#CI [3-iodo-2-propynyl butylcarbamate (IPBC)] under growth [%]: 92.5
Value for CN(C(=O)Cn1c(=O)[nH]c2ccccc2c1=O)C1CCS(=O)(=O)C1 (configuration not stated) + CCCCNC(=O)OCC#CI [3-iodo-2-propynyl butylcarbamate (IPBC)] under growth [%]: 98.6
